For at least one compound, name, drawing or mass did not settle the structure.
Tested on: methane production by stool samples from IBS-C patients
Assay: Methane production by human stool in vitro
Type: cell-based
Text: Data are change from baseline (ΔCH4 ppm) in headspace methane. […] Error bars are SD. P values are significance of change from baseline (paired t-test).
The second principle, without wishing to be bound by theory, is to reduce the pre-systemic conversion of lovastatin lactone to the β-hydroxyacid metabolite. […] Conversion of lovastatin lactone to β-hydroxyacid occurs in stomach acid and through the action of plasma, intestinal and liver esterases; some conversion may also be catalysed by intestinal bacteria.
The potential methane-reducing effect of lovastatin lactone concentrations in the stool of healthy volunteers was estimated by comparison of stool concentrations to lovastatin lactone concentrations used to inhibit methane production in stool samples from an IBS-C patient in vitro.

`CC[C@H](C)C(=O)O[C@H]1C[C@H](O)C=C2C=C[C@H](C)[C@H](CC[C@@H](O)C[C@@H](O)CC(=O)O)[C@H]21` [pravastatin] was tested, and the “inhibition of methane production” value was “ineffective”.

In the case of `CCC(C)(C)C(=O)O[C@H]1C[C@@H](C)C=C2C=C[C@H](C)[C@H](CC[C@@H]3C[C@@H](O)CC(=O)O3)[C@H]21` [simvastatin], the “inhibition of methane production” value is reported as “ineffective”.
